Experimental findings from PMC8301015 are described below.

The test concerns the target T1, AbxC (atypical BrxC; DR_1832), C-terminal His x 6 tag (Deinococcus radiodurans) (UniProt Q9RTD3).
T1 sequence: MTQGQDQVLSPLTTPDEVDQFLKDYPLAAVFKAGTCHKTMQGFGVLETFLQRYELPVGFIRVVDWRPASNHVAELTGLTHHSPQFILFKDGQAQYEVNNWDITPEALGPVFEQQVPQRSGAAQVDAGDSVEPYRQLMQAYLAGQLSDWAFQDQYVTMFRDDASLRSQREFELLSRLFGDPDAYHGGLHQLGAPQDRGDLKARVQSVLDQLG
The test is described as follows: affinity purification with mass spectrometry; AbxC immobilised on CNBr-activated Sepharose 4B; 10 mg D. radiodurans cell lysate, overnight at 4 °C; washed with 100 mM Tris pH 8.0, 0.5 M NaCl; eluted with 10 mM DTT; SDS-PAGE bands, in-gel trypsin, nLC-MS-MS; only the target purified.

Results are given in words; binding and its absence hold for the method and conditions named. In cells and extracts the contact can be indirect. These calls come from enrichment with a bait or labelling near it, and not all partners need be listed. Where a sequence is shown, tags or fusion partners need not be part of it.

B1: acetyl-CoA acetyltransferase (DR_1072), endogenous (enzyme, UniProt Q9RVF7 1-393)
chain: MSKAVIVAASRTPTGKFLGALTDVPAVELGAITLRETLRRSGMPAELVEEVIMGQVVQAGCGQNPARQAALRAGVSHEAGALTINKVCGSGLKAVMLAAQSIRAGDQQAVLAGGMESMSNAPHLLPGARKGYRLGHATVLDANTHDGLWCSINDEGMGLTGERVAEKYSIGREEQDAYATGSHRKAVAAAQGGLFKDEIVPVTIKGRKGDVIVDTDEGPRADTSEETLGKLKPAFKKDGSVTAGNAPGLNDGAASLLVVSEELAQAHELTPLAEIVDYASGGLAPEWVMMTPVPATQKLLKKMNIQAGDVDLWELNEAFSVQSLAVARELGLDAERVNVNGGAVALGHPIGASGARILVTLLSALKQQDKELGVATLCMGGGNGLALAVRRLG
On to B1, for which the binding entry is recorded as “binds”.

B2: proline dehydrogenase (DR_0814), endogenous (enzyme, UniProt Q9RW55 1-310)
chain: MIDQLYRKAVLTVAERPQVEQLARQKMWNLAERFVAGESIESAIQAVQALERDGIAGNLDLLGEFIDSPAKCTEFADDVIKLIEAAHAAGIKPYVSIKLSSVGQGKDENGEDLGLTNARRIIAKAKEYGGFICLDMEDHTRVDVTLEQFRTLVGEFGAEHVGTVLQSYLYRSLGDRASLDDLRPNIRMVKGAYLEPATVAYPDKADVDQNYRRLVFQHLKAGNYTNVATHDERIIDDVKRFVLAHGIGKDAFEFQMLYGIRRDLQKQLAAEGYRVRVYLPYGRDWYAYFSRRIAETPRNAAFVVQGMLKG
Regarding B2, the binding result is listed as “binds”.
